# PMC12646006
# Target: Flag-3D of CVB3 (RNA-dependent RNA polymerase 3D^pol of Coxsackievirus B3) (Coxsackievirus B3)
# Test: affinity purification with mass spectrometry; HEK293T cells transfected with Flag-3D for 36 h, then CVB3 (MOI = 5) or mock infection for 18 h; NP40 lysate on anti-Flag magnetic beads, washed 10 times; trypsin, HPLC-MS/MS
binder,measurement,value
"TRIM4 (endogenous, found by mass spectrometry with Flag-3D) (enzyme, UniProt Q9C037 1-500) MEAEDIQEELTCPICLDYFQDPVSIECGHNFCRGCLHRNWAPGGGPFPCPECRHPSAPAALRPNWALARLTEKTQRRRLGPVPPGLCGRHWEPLRLFCEDDQRPVCLVCRESQEHQTHAMAPIDEAFESYRTGNFDIHVDEWKRRLIRLLLYHFKQEEKLLKSQRNLVAKMKKVMHLQDVEVKNATQWKDKIKSQRMRISTEFSKLHNFLVEEEDLFLQRLNKEEEETKKKLNENTLKLNQTIASLKKLILEVGEKSQAPTLELLQNPKEVLTRSEIQDVNYSLEAVKVKTVCQIPLMKEMLKRFQVAVNLAEDTAHPKLVFSQEGRYVKNTASASSWPVFSSAWNYFAGWRNPQKTAFVERFQHLPCVLGKNVFTSGKHYWEVESRDSLEVAVGVCREDVMGITDRSKMSPDVGIWAIYWSAAGYWPLIGFPGTPTQQEPALHRVGVYLDRGTGNVSFYSAVDGVHLHTFSCSSVSRLRPFFWLSPLASLVIPPVTDRK",binding,binds

# These are yes or no findings as the source states them, for the method shown. Binding seen in cells or lysates may run through a third protein. A yes stands for co-enrichment or nearness to the bait. Other partners may have been found. Sequences can lack the tags named with a protein.
